Measurements taken from PubChem BioAssay (EPA / NIEHS).
Several values for one entry are separate records, joined by “and”; a condition that tells them apart may be missing. Equal values may be shown once. This list was built around the results that the source calls inconclusive (neither active nor inactive); the mix of calls is not that of the screen. Where the call is inconclusive, the potency comes from a doubtful curve fit. More than one record can exist for a structure, and the calls need not agree. Activity calls are given as the source filed them. Rule for the calls: active = hit-call score of the fitted dose curve at least 0.9, where 1 is the maximum; inconclusive = response in the unintended direction; inactive = score below 0.9.

By UniProt entry, the sequences of proteins in these tests, tags left out. Where a name states a change or a piece, a line headed by the entry shows the natural chain unless it says otherwise.
UniProt P04150: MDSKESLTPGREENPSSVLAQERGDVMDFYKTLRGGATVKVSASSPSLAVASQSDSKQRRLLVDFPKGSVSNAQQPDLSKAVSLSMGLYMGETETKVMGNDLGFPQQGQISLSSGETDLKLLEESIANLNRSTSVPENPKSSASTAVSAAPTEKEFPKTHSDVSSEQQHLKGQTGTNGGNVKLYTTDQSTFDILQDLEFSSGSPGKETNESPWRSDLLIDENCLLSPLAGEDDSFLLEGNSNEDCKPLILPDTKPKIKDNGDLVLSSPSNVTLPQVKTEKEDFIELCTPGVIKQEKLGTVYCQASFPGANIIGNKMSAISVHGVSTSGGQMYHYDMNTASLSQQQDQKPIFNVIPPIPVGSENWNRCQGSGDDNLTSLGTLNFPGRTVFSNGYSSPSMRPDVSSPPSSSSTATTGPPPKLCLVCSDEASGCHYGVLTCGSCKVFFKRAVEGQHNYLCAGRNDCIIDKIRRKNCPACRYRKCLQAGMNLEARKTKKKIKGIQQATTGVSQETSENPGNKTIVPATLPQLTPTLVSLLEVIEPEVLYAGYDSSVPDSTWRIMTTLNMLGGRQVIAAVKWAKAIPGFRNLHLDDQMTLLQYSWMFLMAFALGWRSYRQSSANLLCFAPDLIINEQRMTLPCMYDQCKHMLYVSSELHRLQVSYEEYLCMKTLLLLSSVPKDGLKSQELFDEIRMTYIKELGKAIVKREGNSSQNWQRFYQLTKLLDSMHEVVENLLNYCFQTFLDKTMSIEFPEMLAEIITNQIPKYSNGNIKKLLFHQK
UniProt Q96RI1: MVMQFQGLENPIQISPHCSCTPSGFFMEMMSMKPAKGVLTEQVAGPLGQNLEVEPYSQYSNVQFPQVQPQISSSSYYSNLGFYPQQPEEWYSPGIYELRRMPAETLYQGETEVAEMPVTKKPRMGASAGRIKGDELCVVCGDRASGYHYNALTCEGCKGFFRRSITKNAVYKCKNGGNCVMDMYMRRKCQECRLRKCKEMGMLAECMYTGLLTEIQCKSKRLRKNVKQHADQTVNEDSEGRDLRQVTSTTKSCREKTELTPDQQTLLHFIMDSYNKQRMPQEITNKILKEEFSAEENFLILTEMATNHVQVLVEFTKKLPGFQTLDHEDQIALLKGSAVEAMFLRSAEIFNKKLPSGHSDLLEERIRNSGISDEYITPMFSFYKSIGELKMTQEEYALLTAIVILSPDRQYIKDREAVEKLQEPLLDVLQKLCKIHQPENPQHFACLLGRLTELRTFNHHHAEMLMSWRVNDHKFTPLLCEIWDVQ
UniProt P55055, whole entry, looked up: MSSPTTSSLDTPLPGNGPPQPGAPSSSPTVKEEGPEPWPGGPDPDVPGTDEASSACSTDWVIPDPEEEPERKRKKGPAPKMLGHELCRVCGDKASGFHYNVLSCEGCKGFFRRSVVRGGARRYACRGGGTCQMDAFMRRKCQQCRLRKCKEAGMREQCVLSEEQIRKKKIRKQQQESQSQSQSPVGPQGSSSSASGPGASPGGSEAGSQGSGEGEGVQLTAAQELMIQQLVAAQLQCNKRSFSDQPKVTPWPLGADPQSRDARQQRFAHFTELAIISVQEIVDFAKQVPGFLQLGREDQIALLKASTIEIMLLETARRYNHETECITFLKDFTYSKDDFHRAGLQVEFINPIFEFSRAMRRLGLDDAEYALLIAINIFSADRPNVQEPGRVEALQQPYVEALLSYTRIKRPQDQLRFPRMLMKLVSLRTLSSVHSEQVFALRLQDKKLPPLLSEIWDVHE
UniProt O75469: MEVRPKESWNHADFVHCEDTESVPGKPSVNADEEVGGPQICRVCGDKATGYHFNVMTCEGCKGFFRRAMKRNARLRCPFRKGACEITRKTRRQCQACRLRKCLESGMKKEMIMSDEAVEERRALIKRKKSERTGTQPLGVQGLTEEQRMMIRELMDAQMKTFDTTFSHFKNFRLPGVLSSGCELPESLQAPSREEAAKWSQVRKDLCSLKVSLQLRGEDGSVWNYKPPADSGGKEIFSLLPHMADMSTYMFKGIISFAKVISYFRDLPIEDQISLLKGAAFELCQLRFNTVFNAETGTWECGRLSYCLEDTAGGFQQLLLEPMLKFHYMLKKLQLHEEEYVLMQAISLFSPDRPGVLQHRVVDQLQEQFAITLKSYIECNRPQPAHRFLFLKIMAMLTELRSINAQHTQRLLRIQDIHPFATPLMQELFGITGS
UniProt P33261, whole entry, looked up: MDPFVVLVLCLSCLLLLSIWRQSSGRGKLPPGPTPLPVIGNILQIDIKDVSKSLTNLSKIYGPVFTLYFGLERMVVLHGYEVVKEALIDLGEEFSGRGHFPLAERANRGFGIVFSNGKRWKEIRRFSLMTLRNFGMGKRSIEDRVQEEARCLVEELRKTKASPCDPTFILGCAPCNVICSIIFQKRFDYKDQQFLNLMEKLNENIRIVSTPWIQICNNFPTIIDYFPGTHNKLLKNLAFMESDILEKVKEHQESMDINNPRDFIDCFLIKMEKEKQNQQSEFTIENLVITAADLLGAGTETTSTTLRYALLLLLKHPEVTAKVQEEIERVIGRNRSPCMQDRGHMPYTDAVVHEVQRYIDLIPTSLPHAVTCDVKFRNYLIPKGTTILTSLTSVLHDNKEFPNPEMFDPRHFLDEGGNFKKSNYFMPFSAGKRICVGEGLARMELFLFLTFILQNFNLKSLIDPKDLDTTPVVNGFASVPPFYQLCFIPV
UniProt Q03181: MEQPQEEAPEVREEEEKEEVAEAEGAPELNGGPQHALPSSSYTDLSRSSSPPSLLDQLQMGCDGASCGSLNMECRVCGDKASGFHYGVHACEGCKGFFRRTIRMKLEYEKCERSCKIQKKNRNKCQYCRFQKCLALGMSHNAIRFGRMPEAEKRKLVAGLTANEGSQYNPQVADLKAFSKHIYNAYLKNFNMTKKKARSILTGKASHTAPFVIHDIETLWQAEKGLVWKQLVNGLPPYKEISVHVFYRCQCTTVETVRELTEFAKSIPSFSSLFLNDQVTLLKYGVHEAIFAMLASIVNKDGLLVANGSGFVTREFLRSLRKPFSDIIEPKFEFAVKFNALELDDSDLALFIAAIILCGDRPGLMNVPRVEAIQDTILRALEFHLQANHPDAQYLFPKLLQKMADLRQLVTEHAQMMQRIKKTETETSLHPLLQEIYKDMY
UniProt Q01717: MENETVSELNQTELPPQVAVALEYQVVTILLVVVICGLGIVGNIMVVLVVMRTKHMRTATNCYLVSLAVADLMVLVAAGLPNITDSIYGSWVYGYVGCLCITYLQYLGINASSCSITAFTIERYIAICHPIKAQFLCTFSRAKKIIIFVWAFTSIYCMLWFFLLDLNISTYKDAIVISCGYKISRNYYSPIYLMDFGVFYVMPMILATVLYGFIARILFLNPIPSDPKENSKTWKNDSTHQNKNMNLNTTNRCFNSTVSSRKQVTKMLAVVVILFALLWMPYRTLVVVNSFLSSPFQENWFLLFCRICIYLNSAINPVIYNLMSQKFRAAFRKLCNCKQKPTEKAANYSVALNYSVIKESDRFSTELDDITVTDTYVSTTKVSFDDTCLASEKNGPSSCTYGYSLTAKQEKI
UniProt P04637, whole entry, looked up: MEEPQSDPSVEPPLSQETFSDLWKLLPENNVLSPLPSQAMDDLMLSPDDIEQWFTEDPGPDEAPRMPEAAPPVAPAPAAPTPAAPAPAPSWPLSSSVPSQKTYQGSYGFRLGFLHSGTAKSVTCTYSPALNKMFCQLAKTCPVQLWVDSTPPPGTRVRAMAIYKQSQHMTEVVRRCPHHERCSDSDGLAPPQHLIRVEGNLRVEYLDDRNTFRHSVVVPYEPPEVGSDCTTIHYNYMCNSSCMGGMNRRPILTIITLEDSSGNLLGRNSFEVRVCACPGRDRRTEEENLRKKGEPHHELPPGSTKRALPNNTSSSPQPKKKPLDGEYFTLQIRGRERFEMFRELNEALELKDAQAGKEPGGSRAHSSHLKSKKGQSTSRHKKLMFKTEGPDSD
UniProt P37231: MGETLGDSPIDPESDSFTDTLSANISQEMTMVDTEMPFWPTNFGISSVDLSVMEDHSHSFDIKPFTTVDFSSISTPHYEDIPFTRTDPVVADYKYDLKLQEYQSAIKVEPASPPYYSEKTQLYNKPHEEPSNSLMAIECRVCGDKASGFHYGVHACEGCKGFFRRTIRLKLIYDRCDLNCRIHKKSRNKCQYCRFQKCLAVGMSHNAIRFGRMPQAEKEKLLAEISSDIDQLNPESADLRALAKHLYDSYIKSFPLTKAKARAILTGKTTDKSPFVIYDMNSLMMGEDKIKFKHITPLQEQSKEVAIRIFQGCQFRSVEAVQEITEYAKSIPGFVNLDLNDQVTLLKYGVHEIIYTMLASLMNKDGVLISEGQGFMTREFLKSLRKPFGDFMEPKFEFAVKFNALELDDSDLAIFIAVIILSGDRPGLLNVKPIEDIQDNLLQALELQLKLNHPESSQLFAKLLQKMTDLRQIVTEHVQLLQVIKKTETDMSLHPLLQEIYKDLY

Experiments:
[1] = molecular target: Glucocorticoid receptor (Homo sapiens) (UniProt P04150); assay: ATG_GR_TRANS: Attagene TRANS-FACTORIAL HepG2 Assay for human Glucocorticoid Receptor (GR) (AID 2282978); conditions: HepG2 Attagene TRANS GR reporter, mRNA transcription;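 note: activators score as hits since higher reporter transcript over DMSO is fitted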
In short: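 Multiplexed TRANS reporter system, HepG2; 24 h exposure; RNA → oligo(dT) RT → reporter-specific PCR → 6-FAM primer extension → HpaI cut → CE fluorescence. Gain-of-signal vs DMSO.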

[2] = molecular target: Bile acid receptor (Homo sapiens) (UniProt Q96RI1); assay: ATG_FXR_TRANS: Attagene TRANS-FACTORIAL HepG2 Assay for Farnesoid X Receptor (FXR) (AID 2282979); conditions: HepG2 Attagene TRANS FXR-GAL4 reporter transcription;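 note: hits raise reporter mRNA above DMSO so AC50 marks FXR activation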
In short: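 Transient transfection of HepG2 with multiplexed GAL4-UAS reporter units; exogenous FXR-GAL4 chimera. Dose 24 h → TriZol RNA → oligo(dT) RT → PCR, 6-FAM primer extension, HpaI cut → CE. Gain vs DMSO.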

[3] = molecular target: Oxysterols receptor LXR-beta (Homo sapiens) (UniProt P55055); assay: ATG_LXRb_TRANS: Attagene TRANS-FACTORIAL HepG2 Assay for human Liver X Receptor beta (LXRb) (AID 2282981); conditions: HepG2 Attagene TRANS GAL4-LXRb reporter, mRNA
In short: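 Multiplexed reporter assay, HepG2, 24 h dosing. Fluorescence of labelled RT-PCR products after capillary electrophoresis gives transcript level; positive fitting direction relative to DMSO.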

[4] = ATG_M_06_TRANS: Attagene TRANS-FACTORIAL HepG2 Assay for M06 Transcription Factor (Internal Marker) (AID 2282983); conditions: HepG2 Attagene TRANS M06 internal marker reporter;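 for AC50: potency for rise in reporter mRNA above DMSO baseline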
In short: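 Background control endpoint: reporter mRNA from transiently transfected HepG2 after 24 h dosing, detected by RT-PCR with capillary electrophoresis fluorescence. Analysed for gain versus DMSO.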

[5] = ATG_M_32_TRANS: Attagene TRANS-FACTORIAL HepG2 Assay for M32 Transcription Factor (Internal Marker) (AID 2282984); conditions: HepG2 Attagene TRANS M32 internal marker reporter
In short: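 Internal-marker readout from a multiplexed transcription reporter panel. HepG2 cells were transfected with GAL4-UAS reporter units, treated 24 hours, and reporter transcript levels determined by fluorescence after RT-PCR and capillary separation.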

[6] = molecular target: Nuclear receptor subfamily 1 group I member 2 (Homo sapiens) (UniProt O75469); assay: ATG_PXR_TRANS: Attagene TRANS-FACTORIAL HepG2 Assay for human Pregnane X Receptor (PXR) (AID 2283008)
In short: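 HepG2 transfected (FuGene 6) with GAL4-UAS reporter units + PXR-Gal4 chimera; dosed 24 h. Total RNA → oligo(dT) RT → PCR → 6-FAM primer extension → HpaI cut → CE. Gain-of-signal vs DMSO.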

[7] = read-out: Cytochrome P450 2C19 (Homo sapiens) (UniProt P33261); assay: CLD_CYP2C19_6hr: CellzDirect (CLD) Gene Expression Assay for xenobiotic metabolism (CYP2C19) at 6 hours (AID 2283678)
In short: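 CYP2C19 transcript induction was quantified by quantitative nuclease protection assay with chemiluminescent read-out, 6 h after dosing. Cells were primary human hepatocytes from two donor preparations, given fresh dosing solutions daily in 0.2% DMSO vehicle. Activity was relative to DMSO.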

[8] = read-out: HMG-CoA synthase (HMGCS2), HMGCS2 (gene 3158); assay: CLD_HMGCS2_24hr: CellzDirect (CLD) Gene Expression Assay for HMG-CoA synthase (HMGCS2) at 24 hours (AID 2283691)
In short: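 qNPA with S1 nuclease digestion and chemiluminescent detection gave HMGCS2 transcript levels, fitted upward against 0.2% DMSO vehicle. Cultured human hepatocytes (two donors) received fresh compound daily and were harvested at 24 h; phase-contrast morphology flagged cytotoxicity.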

[9] = ACEA_AR_agonist_AUC_viability: ACEA Biosciences xCELLigence Real-Time Cell Analysis on Androgen Receptor Agonism for Viability (AID 2283775);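 for AC50: viability read 80 hours after compound addition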
In short: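 22Rv1 cells; impedance growth kinetics; 8-pt 1:4 dilutions from 100 uM top final, ≤0.5% DMSO; n = 2; 80 h read; AUC viability, loss-of-signal vs DMSO.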

[10] = CCTE_Harrill_HTTr_CellCount_MCF7: CCTE's Cell Proliferation Assessment for the High-Throughput Transcriptomics (HTTr) Platform, Harrill Lab (AID 2284012);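 note: cells exposed to compound for six hours; intended direction is loss of nuclei count meaning fewer cells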
In short: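 Cell count from high-content imaging of Hoechst-labeled nuclei serves as viability/growth readout. Chemicals were applied to MCF-7 cells in eight concentrations for six hours, with fitting in both directions relative to DMSO.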

[11] = molecular target: human Peroxisome Proliferator-activated Receptor delta (PPARd), PPARD (gene 5467) (UniProt Q03181); assay: ATG_PPARd_TRANS: Attagene TRANS-FACTORIAL HepG2 Assay for human Peroxisome Proliferator-activated Receptor delta (PPARd) (AID 2283002)
In short: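 HepG2 cells transiently transfected with GAL4-UAS multiplexed reporter units driven by exogenous chimeric NR-GAL4 proteins; 24 h compound exposure. Reporter mRNA measured by RT-PCR, 6-FAM primer extension, HpaI digestion and capillary electrophoresis; gain of signal fitted relative to DMSO.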

[12] = molecular target: rat Thyrotropin Releasing Hormone Receptor (TRH), Trhr (gene 25570) (UniProt Q01717); assay: NVS_GPCR_rTRH: NovaScreen (NVS) G Protein-Coupled Receptor Assay for rat Thyrotropin Releasing Hormone Receptor (TRH) (AID 2283329);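 note: hit means lower bound tracer signal versus DMSO baseline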
In short: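 Rat forebrain membranes; radioligand displacement at TRH receptor by filter-based scintillation counting, read 4 h after dosing. Duplicate single-point screen at 25 uM, actives rerun in concentration series; loss of signal relative to DMSO.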

[13] = ATG_M_19_TRANS: Attagene TRANS-FACTORIAL HepG2 Assay for M19 Transcription Factor (Internal Marker) (AID 2282974); conditions: HepG2 Attagene TRANS-FACTORIAL M19 internal marker reporter
In short: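 After transfection of HepG2 with GAL4-UAS-driven reporter constructs, cells are dosed for 24 h. Total RNA is reverse-transcribed, reporter sequences PCR-amplified and labelled, then HpaI-digested and sized by capillary electrophoresis.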

[14] = molecular target: Cellular tumor antigen p53 (Homo sapiens) (UniProt P04637); assay: TOX21_p53_BLA_p2_ratio: Tox21 HCT-116 p53 Agonism Beta-lactamase Assay, Ratio, Phase 2 (AID 2283592)
In short: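 Plated HCT116 p53-bla cells (4000/well) received compound after 5 h, then 16 h at 37C/5% CO2. CCF4-AM added, 2 h RT. Ratio of 460 to 530 nm emission taken as the p53 reporter signal.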

[15] = molecular target: Cellular tumor antigen p53 (Homo sapiens) (UniProt P04637); assay: TOX21_p53_BLA_p3_ratio: Tox21 HCT-116 p53 Agonism Beta-lactamase Assay, Ratio, Phase 3 (AID 2283596)
In short: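 Cells were seeded at 4000/well, rested 5 h at 37C, then dosed with DMSO compound solutions (217-fold dilution) for 16 h. CCF4-AM substrate was loaded for 2 h at room temperature, and the 460/530 nm emission ratio was fitted for gain of signal versus DMSO.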

[16] = TOX21_p53_BLA_p5_viability: Viability Assessment in the Tox21 HCT-116 p53 Agonism Beta-lactamase Assay, Phase 5 (AID 2283600)
In short: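 Workflow: seed 4000 cells per well, wait 5 h, add compounds (DMSO, 217-fold dilution), incubate 16 h, load CCF4-AM 2 h, add CellTiter-Glo, read luminescence after 30 min.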

[17] = molecular target: Cellular tumor antigen p53 (Homo sapiens) (UniProt P04637); assay: TOX21_p53_BLA_p4_ratio: Tox21 HCT-116 p53 Agonism Beta-lactamase Assay, Ratio, Phase 4 (AID 2283601)
In short: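 HCT-116 p53 beta-lactamase reporter cells (4000/well) preincubated 5 h, then compound (217-fold dilution of DMSO stock) for 16 h at 37C. CCF4-AM substrate added 2 h at room temperature; 460/530 nm emission ratio fitted upward versus DMSO.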

[18] = molecular target: Peroxisome proliferator-activated receptor gamma (Homo sapiens) (UniProt P37231); assay: ATG_PPARg_TRANS: Attagene TRANS-FACTORIAL HepG2 Assay for human Peroxisome Proliferator-activated Receptor-gamma (PPARg) (AID 2283007)
In short: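 Human hepatoma HepG2, transient MRTU transfection, 24 h treatment. mRNA reporter signal by RT-PCR plus capillary electrophoresis, fluorescence detection; fitted for increase over DMSO negative control.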

[19] = ACEA_ER_AUC_viability: ACEA Biosciences xCELLigence Real-Time Cell Analysis on Estrogen Receptor Agonism for Viability (AID 2283782);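 note: hit means loss of impedance signal meaning reduced cell growth or viability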
In short: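 Read-out: real-time electrical impedance (RT-CES) area under curve, loss of signal taken as reduced viability, normalized to DMSO baseline. T-47D cells, charcoal-stripped serum medium, compounds up to 100 uM final, continuous exposure, 80 h.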

[20] = CCTE_Deisenroth_AIME_384WELL_CTox_Active: Cytotoxicity Assessment (CTOX) in CCTE's 384-well Estrogen Receptor Transactivation Assay with AIME metabolic competence (metabolism positive), Deisenroth Lab (AID 2284037);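 note: chemicals first conditioned 2 h by alginate-bound induced rat liver S9 before cells; activity means signal loss indicating cell death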
In short: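 Chemicals pre-incubated 2 hours with alginate-immobilised phenobarbital/beta-naphthoflavone-induced male Sprague Dawley rat liver S9, then conditioned medium applied 24 hour to VM7Luc4E2 cells. Viability by fluorogenic protease substrate; 10-point series 0.002 - 200 uM.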

Measured: AC50

CCNC(=O)NC(=O)C(C#N)=NOC
inconclusive: [1] 50 µM | [2] 91.4 µM | [4] 50 µM | [5] 50 µM | [6] 0.853 µM | [9] 0.00396 µM
inactive: [3] | [7] | [8] | [10]

CC(=NC#N)N(C)Cc1ccc(Cl)nc1
inconclusive: [11] 0.479 µM | [12] 0.0383 µM
inactive: [3] | [4] | [7] | [8]

CNC(=O)CSP(=S)(OC)OC
inconclusive: [13] 50 µM | [9] 50 µM
inactive: [4] | [11] | [7] | [8]

O=C(CCl)c1ccccc1
active: [19] 10.9 µM
inconclusive: [5] 7.78 µM | [17] 46.6 µM
inactive: [13] | [3]

c1ccc(OP(Oc2ccccc2)Oc2ccccc2)cc1
inconclusive: [3] 27.5 µM | [15] 46.1 µM | [16] 46.1 µM and 45.7 µM | [9] 15.9 µM | [19] 14 µM | [10] 50 µM
inactive: [13] | [5] | [18] | [15]

OCC1CO1 (stereo not drawn)
inconclusive: [1] 100 µM | [2] 24.2 µM | [6] 33 µM | [16] 46.1 µM | [17] 46.7 µM | [19] 50 µM | [10] 50 µM
inactive: [4] | [11] | [15] | [16] | [20]

Nc1ccc([N+](=O)[O-])cc1N
inactive: [5] | [18]
inconclusive: [13] 100 µM

CC(C)Nc1nc(Cl)nc(NC(C)C)n1
inconclusive: [13] 12.4 µM | [16] 2.06 µM and 4.57 µM | [7] 0.00422 µM | [8] 20 µM | [9] 10.6 µM | [10] 0.0303 µM | [20] 0.0002 µM
inactive: [3] | [5] | [15] | [17]

CC1(C)CON(Cc2ccccc2Cl)C1=O
inconclusive: [4] 50 µM | [16] 0.0104 µM | [17] 46.1 µM | [8] 0.00319 µM | [19] 50 µM | [10] 50 µM | [20] 0.000977 µM
inactive: [13] | [11] | [12] | [15] | [7]

CCOP(=S)(OCC)Oc1ccc([N+](=O)[O-])cc1
inconclusive: [16] 23 µM and 299 nM | [7] 6.01 µM | [8] 36 µM
active: [14] 89.3 µM

CNC
inconclusive: [4] 0.013 µM | [18] 100 µM | [6] 100 µM | [12] 25 µM | [14] 46 µM | [17] 46.1 µM | [9] 16.6 µM | [10] 50 µM
inactive: [1] | [3] | [15] | [20]
